In all, about 320,000 compounds went through this assay and about 2,100 (0.66%) were called active. The inconclusive results got no clear call from the source; some entries with a clear call stand among them for comparison. The call rests on the fitted dose curve; in most records, active means well fitted inhibition curve with a large enough effect in the signal ratio, with a control signal flat (not every such curve was filed as active); inconclusive means small, poorly fitted or top-dose-only effect, or effect the other way, or a change in a side signal; inactive means flat fitted curve, though single readings scatter; the % refers to the signal ratio. Potencies of inconclusive entries are doubtful fits and often do not repeat.
Assay: qHTS Assay for Lipid Storage Modulators in Drosophila S3 Cells
Conditions: BODIPY lipid droplet fluorescence, 18-24 h, cells fed with added oleic acid; lipid storage change, negative = inhibition: at 46.1 µM (top of the series) unless noted
Summary of the method: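 Laser-scanning cytometry quantifies lipid droplet accumulation (500–530 nm total intensity; droplet/cell object ratio) in oleic acid-fed (400 uM added) Drosophila S3 cells treated with a concentration series. 20 uM Triacsin C defined 100% inhibition.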
On the % scale 0 is the no-effect control and ±100 the full control effect; potency means the concentration at half of the fitted maximal effect.

Structure (SMILES) | lipid storage change, negative = inhibition | Potency
CC(=O)C1=C(C)N(c2ccccc2)C(=O)C1(NS(=O)(=O)c1ccc(N)cc1)C(F)(F)F (stereo not drawn) | inconclusive: 1.46% | –
O=C(C1=C(O)C(=O)N(CCN2CCOCC2)C1c1cccnc1)c1cc2ccccc2o1 (stereo not drawn) | inconclusive: 4.07% | –
Cc1ccc(NS(=O)(=O)c2ccc(CCC(=O)NCCO)cc2)cc1 | inconclusive: 0.701% | –
Cc1cccc(C)c1OCc1cc(C(=O)NCC2CCCCC2)no1 | inconclusive: 54.8% | –
O=C1CC(c2ccc(O)cc2)Oc2ccccc21 (stereo not drawn) | inconclusive: 10.9% | –
Cc1cc2c(c(=O)n1C)C(C(C)C)C(C#N)=C(N)O2 (stereo not drawn) | inconclusive: 25.4% | –
O=C(NCCCCc1ccccc1)c1cc([N+](=O)[O-])cc([N+](=O)[O-])c1 | inconclusive: -7.98% | –
Clc1ccc(-c2cc(C3CCNCC3)[nH]n2)cc1 | – | inconclusive: 16.4 µM [activator, single point]
Cc1ccc(-n2c(=O)cc(N3CCN(Cc4ccccc4)CC3)[nH]c2=O)cc1 | inconclusive: -11.6% | –
Cc1cccc2cc3cccc(C)c3nc12 | – | inconclusive: 0.291 µM [falling, full curve, poor fit]
CCCN(Cc1cc2cc(C)ccc2[nH]c1=O)C(=O)c1ccccn1 | inconclusive: 20.1% | –
CCOc1ccc(S(=O)(=O)N(CC)CC(=O)NCc2cccnc2)cc1C | – | inconclusive: 3.66 µM [activator, partial curve]
CSc1nc(C)cc(-n2cc(F)c(=O)[nH]c2=O)n1 | inconclusive: 7.08% | –
CCn1cc(C(=O)NCCCN2CCCC(C)C2)c(=O)c2cc(S(=O)(=O)N3CCOCC3)ccc21 (stereo not drawn) | – | inconclusive: 29.1 µM [activator, single point]
Cc1cccc(C)c1OCC(=O)Nn1c(C)nc2ccccc2c1=O | inconclusive: 2.18% | –
C/C(=N\NC(=O)c1nn(C)c(C)c1Br)c1cccc(NC(=O)c2ccc(F)cc2)c1 | inconclusive: 26.5% | –
O=C1CSC(c2ccncc2)N1Cc1ccccc1 (stereo not drawn) | – | inconclusive: 0.146 µM [falling, single point]
COc1ccc(S(=O)(=O)N(C)C)cc1NC(=O)CSc1nnc(-c2cccnc2)o1 | – | inconclusive: 0.731 µM [falling, single point]
COc1ccc(-n2c(=O)c(CCC(=O)N3CCN(c4ccccc4O)CC3)nc3ccccc32)cc1 | inactive: -27.2% | –
O=C(NNC(=O)c1cccnc1SCc1cccc([N+](=O)[O-])c1)c1cccnc1 | inconclusive: 39.4% | –
O=C(CCCN1C(=O)c2cccc3cccc(c23)C1=O)N1CCN(c2ccccn2)CC1 | inconclusive: 13% | –
CCOc1ccccc1C(=O)NC1CCN(Cc2nnnn2C2CCCC2)CC1 | – | inconclusive: 6.51 µM [activator, partial curve, poor fit]
Cc1ccc(O)c(CNc2ccccn2)c1 | inconclusive: 25.3% | –
COc1ccc(-c2csc(NC(=O)C3CCN(C(=O)c4ccc(F)cc4)CC3)n2)cc1OC | – | inconclusive: 29.1 µM [falling, single point]

Structure (SMILES) | lipid storage change, negative = inhibition | Potency
Fc1ccc(Nc2nc3ccccc3s2)cc1 | inconclusive: -16.9% | –
O/N=C/c1cn(-c2ccccc2)nn1 | inconclusive: -11.5% | –
CC(CO)NCC12CC3CC(CC(C3)C1)C2 (stereo not drawn) | inconclusive: 6.11% | –
CCc1nnc(SC(C)C(=O)Nc2nccs2)n1C (stereo not drawn) | inconclusive: -23.3% | –
COc1ccc2cc(C(=O)C3CCCN(C(=O)CCc4ccccn4)C3)ccc2c1 (stereo not drawn) | inconclusive: -13% | –
O=C1CCCN1CCCNc1ncnc2sccc12 | – | inconclusive: 6.51 µM [falling, single point]
COc1ccc(S(=O)(=O)NCC2CCC(C(=O)NCC(OC)OC)CC2)cc1 (stereo not drawn) | inconclusive: -21.5% | –
COc1ccc(C2C(C#N)=C(N)N(c3ccccc3)C3=C2C(=O)CCC3)cc1Cn1cc([N+](=O)[O-])cn1 (stereo not drawn) | – | inconclusive: 29.1 µM [cytotoxic, single point]
COc1ccc(S(=O)(=O)N2CCCCC2)cc1NC(=O)c1ccc(OC)c(OC)c1 | inconclusive | –
COC(=O)C1=C(C)Nc2c(c(=O)n(C)c(=O)n2C)C1c1ccc(C)cc1 (stereo not drawn) | inconclusive: 11.6% | –
Cc1csc(NC(=O)CSc2nnc(Cn3c(=O)sc4ccccc43)n2-c2ccccc2)n1 | – | inconclusive: 29.1 µM [falling, single point]
O=C1c2ccccc2N2C(=O)c3ccccc3[C@H]2N1c1ccccc1 | inconclusive: 8.8% | –
COc1ccc(C(=O)n2c(N)nc3ccccc32)cc1OC | inconclusive: -76.2% | –
Cc1onc(C(=O)N2CCN(Cc3ccccc3)CC2)c1[N+](=O)[O-] | inconclusive: 0.296% | –
C/C(CC(=O)NCCCN1CCOCC1)=N\NC(=O)COc1cccc2ccccc12 | inconclusive: 22.3% | –
CCCCC(=O)Nc1ccc2c(c1)nc(CCN1CCN(c3ccccn3)CC1)n2C | inconclusive: 0.981% | –
COC(=O)c1cc(CNC(=O)c2ccccc2OCc2c(C)noc2C)ccc1OC | inconclusive: 39% | –
Cc1ccc(C)n1-c1cc(S(=O)(=O)N2CCOCC2)ccc1N1CCCC1 | – | inconclusive: 29.1 µM [activator, single point]
O=C(NCc1cccs1)c1cc(-c2ccccc2)nc2ccccc12 | inconclusive: 24.4% | –
O=c1c2cc3c(=O)n(CC4CCCO4)c(=O)c3cc2c(=O)n1CC1CCCO1 (stereo not drawn) | – | inconclusive: 0.92 µM [falling, full curve, poor fit]
CN(C)c1oc(-c2ccc(Cl)cc2)nc1S(=O)(=O)c1ccccc1 | – | inconclusive: 6.51 µM [activator, full curve, poor fit]
CCC1CCCCN1CCCNC(=O)c1ccc2c(c1)N(Cc1ccc(F)cc1)C(=O)c1ccccc1S2=O (stereo not drawn) | – | inconclusive: 6.51 µM [falling, single point]
CN(C)c1oc(COc2ccc(F)cc2)nc1C#N | inconclusive: 4.97% | –
Cc1cc(S(=O)(=O)NCc2ccccc2)ccc1OCC(=O)NCc1cccnc1 | – | inconclusive: 29.1 µM [falling, single point]

Molecules above with an NH in an aromatic ring, in the order listed:
Structure (SMILES) | lipid storage change, negative = inhibition | Potency
Clc1ccc(-c2cc(C3CCNCC3)[nH]n2)cc1 | – | inconclusive: 16.4 µM [activator, single point]
Cc1ccc(-n2c(=O)cc(N3CCN(Cc4ccccc4)CC3)[nH]c2=O)cc1 | inconclusive: -11.6% | –
CCCN(Cc1cc2cc(C)ccc2[nH]c1=O)C(=O)c1ccccn1 | inconclusive: 20.1% | –
CSc1nc(C)cc(-n2cc(F)c(=O)[nH]c2=O)n1 | inconclusive: 7.08% | –
